These are yes or no findings as the source states them, for the method shown. Some entries that bind do so weakly or less than the wild type.
What was measured:
[1] = biological target: T1, Human IL-11 (human) (UniProt P20809); assay: SPR, BIAcore T200
T1 sequence: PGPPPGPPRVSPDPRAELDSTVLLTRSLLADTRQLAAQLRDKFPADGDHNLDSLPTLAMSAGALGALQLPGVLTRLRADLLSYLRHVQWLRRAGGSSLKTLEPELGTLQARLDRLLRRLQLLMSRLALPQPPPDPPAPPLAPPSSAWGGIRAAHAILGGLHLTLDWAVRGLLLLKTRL

[2] = biological target: T2, Mouse IL-11 (mouse) (UniProt P47873); assay: SPR, BIAcore T200
T2 sequence (looked up): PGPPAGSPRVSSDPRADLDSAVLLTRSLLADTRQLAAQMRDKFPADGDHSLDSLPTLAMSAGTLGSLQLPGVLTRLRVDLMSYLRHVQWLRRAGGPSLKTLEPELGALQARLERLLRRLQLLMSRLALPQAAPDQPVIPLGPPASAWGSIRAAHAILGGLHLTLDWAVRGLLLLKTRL

binding [1]: binds | binding [2]: binds
B1: BSN-3C6 (antibody, V domains shown)
VH: EVQLQQSGPELVKPGASVKIPCKASGYTFTDYNMDWVKQSHGKSLEWIGDINPHNGGPIYNQKFTGKATLTVDKSSSTAYMELRSLTSEDTAVYYCARGELGHWYFDVWGTGTTVTVSS
VL: DIVLTQSPASLAVSLGQRATISCRASKSVSTSGYSYIHWYQQKPGQPPKLLIYLASNLDSGVPARFSGSGSGTDFTLNIHPVEEEDAATYYCQHSRDLPPTFGGGTKLEIK
